These are yes or no findings as the source states them, for the method shown. Binding seen in cells or lysates may run through a third protein. Some entries that bind do so weakly or less than the wild type.

By UniProt entry, the sequences of proteins in these tests, tags left out.
UniProt P31749: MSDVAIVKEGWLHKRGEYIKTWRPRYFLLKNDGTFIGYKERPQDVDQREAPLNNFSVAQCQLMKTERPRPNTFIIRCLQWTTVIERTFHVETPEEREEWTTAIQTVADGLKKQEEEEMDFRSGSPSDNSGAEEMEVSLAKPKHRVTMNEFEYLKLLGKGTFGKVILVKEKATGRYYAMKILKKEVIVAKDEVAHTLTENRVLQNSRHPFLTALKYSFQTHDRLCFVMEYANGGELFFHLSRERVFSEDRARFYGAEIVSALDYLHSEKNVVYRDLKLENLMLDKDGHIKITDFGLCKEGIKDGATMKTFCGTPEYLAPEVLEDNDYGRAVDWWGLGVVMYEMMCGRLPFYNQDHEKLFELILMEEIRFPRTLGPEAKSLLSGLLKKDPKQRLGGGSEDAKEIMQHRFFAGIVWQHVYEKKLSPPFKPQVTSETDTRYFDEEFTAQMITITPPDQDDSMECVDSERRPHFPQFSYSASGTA
UniProt Q05397: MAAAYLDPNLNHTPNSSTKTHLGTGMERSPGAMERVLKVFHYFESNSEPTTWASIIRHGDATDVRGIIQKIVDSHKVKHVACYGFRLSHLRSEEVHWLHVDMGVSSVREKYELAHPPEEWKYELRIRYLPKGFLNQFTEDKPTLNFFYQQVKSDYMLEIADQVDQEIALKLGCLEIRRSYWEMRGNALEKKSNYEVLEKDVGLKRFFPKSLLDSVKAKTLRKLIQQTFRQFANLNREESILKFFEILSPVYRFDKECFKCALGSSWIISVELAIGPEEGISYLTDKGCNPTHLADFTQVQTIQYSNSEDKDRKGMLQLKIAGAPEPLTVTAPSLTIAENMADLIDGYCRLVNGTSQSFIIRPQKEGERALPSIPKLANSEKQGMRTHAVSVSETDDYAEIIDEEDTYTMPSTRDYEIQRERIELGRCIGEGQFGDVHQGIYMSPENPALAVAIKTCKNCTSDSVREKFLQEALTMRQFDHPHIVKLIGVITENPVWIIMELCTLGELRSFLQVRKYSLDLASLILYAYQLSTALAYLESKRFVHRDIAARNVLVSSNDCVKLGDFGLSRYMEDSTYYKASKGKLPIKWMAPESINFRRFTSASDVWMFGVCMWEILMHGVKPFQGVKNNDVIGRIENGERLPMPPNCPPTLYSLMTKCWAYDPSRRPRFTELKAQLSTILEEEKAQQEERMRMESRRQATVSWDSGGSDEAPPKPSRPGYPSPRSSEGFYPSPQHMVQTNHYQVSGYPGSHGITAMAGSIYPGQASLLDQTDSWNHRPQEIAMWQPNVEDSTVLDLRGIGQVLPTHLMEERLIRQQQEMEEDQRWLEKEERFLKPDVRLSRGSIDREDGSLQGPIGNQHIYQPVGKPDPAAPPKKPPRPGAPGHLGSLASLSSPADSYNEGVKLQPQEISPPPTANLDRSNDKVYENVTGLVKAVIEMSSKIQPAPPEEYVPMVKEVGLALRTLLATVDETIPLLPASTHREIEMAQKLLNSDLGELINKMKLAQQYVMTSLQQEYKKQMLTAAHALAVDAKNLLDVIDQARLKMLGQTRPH

One experiment concerns the target GST-Akt1 [GST: P08515]. Nature of the experiment: GST pull-down: GST-Akt1 on Sepharose beads, lysate of transfected Caco-2 cells, western blot for HA. A general note: Immunoblotting shows a protein as a band on a membrane.
Experiment [1] deals with Akt1 (endogenous, in lysates of human Caco-2 or SW620 colon cancer cells) (human) (UniProt P31749). Put plainly: co-immunoprecipitation with anti-HA from SW620 cells transfected with HA-FAK, western blot for Akt1.

Turning to “HA-tagged wild type FAK (from UniProt Q05397 1-1052) (enzyme)”, the binding entry (with GST-Akt1 [GST: P08515]; in experiment [1]) was “binds” throughout.

(Values after US20200164046A1.)
